# From PubChem BioAssay (NCATS)
# The chains behind the UniProt entries cited, without tags or fusion partners. Where a name states a change or a piece, a line headed by the entry shows the natural chain unless it says otherwise.
# UniProt P10635, whole entry, looked up: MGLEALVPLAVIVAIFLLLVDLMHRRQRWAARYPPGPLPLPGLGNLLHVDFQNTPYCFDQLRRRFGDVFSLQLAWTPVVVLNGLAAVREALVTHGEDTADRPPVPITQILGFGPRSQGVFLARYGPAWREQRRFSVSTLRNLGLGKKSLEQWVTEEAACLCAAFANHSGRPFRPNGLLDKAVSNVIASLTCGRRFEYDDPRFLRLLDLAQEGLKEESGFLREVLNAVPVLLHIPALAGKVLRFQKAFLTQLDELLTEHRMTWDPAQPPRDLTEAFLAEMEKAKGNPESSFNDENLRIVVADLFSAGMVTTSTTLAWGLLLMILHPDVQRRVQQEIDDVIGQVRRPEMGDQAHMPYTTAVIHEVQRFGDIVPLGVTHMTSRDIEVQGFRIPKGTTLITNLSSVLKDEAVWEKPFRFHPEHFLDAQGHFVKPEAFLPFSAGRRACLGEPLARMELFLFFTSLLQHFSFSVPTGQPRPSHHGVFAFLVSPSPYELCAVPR
# UniProt P07203, whole entry, looked up: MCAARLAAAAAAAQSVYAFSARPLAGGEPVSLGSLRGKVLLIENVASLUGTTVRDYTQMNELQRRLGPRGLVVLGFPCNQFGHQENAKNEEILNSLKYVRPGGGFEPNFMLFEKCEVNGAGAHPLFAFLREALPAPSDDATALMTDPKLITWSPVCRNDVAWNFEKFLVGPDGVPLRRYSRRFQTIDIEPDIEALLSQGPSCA
# UniProt P11712, whole entry, looked up: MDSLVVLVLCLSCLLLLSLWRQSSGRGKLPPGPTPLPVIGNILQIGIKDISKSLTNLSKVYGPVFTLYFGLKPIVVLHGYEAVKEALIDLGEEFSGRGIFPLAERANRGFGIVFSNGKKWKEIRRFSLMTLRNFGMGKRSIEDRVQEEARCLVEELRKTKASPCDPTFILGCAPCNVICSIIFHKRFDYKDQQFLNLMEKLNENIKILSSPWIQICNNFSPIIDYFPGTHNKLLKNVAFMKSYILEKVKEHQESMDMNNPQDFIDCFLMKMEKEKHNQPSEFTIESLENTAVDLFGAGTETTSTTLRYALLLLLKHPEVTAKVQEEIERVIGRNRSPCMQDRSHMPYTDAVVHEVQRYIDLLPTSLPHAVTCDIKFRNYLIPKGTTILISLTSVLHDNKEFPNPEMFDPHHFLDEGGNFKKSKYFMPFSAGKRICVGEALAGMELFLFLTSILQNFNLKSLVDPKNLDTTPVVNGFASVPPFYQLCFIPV
# UniProt O94782: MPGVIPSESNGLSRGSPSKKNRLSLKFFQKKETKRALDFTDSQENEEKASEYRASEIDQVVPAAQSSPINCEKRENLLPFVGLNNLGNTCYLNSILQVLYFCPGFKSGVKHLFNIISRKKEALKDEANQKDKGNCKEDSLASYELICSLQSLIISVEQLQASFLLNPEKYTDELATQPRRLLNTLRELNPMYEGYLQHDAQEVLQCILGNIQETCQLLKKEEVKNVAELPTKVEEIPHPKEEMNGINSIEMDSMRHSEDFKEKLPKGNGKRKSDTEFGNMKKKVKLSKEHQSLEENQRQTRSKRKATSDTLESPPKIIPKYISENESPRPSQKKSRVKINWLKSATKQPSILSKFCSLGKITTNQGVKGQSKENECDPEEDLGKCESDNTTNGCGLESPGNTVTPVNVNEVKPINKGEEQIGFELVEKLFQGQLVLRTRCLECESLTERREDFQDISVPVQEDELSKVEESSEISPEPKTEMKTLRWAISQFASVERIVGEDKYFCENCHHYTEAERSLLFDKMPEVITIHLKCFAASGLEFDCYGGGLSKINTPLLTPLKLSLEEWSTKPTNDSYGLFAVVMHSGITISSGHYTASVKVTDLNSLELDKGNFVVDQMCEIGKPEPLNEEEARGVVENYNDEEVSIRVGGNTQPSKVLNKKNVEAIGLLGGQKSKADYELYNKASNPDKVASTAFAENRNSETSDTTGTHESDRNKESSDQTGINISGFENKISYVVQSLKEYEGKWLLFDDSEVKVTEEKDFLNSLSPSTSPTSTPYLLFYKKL
# Where “and” joins values, the source holds several entries; their conditions need not be identical. Equal values may be shown once. Inconclusive results, whose numbers are uncertain, are shown with a selection of clear calls. For part of these data: A potency beside an inconclusive call is a rough fit, not a confirmed value. Calls of active or inactive are those of the source. Unless noted, calls follow the shape of the dose curve; as a rule, active = well fitted curve in the direction sought with a large enough effect; inconclusive = small, poorly fitted or top-dose-only effect, or another doubt; inactive = no such curve, though single readings can be large; an effect the other way counts as inactive or inconclusive.
# Key:
# [1] = Quantitative High-Throughput drug screen in 47 multiple myeloma cell lines against the NCATS MIPE library collection: FR4_PLB cell viability assay (AID 1918924; also: nearly all actives have a fitted effect of over 35% in size)
# How it was run: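 Luminescent ATP measurement with CellTiter-Glo gives viability, scaled between DMSO-only wells (100%) and media-only wells (0%). Cells, 500 per well, faced library compounds for 48 hours at 37C.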
# [2] = P-glycoprotein substrates identified in KB-3-1 adenocarcinoma cell line, qHTS therapeutic library screen (AID 1346986); conditions: KB-3-1 parental cells viability, CellTiter-Glo, 72 h; outcome: at 44.5 µM (top of the series) unless noted;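 also: potency is read from the fitted curve at half-maximal effect; potency is for cytotoxicity meaning loss of cell viability; nearly all actives have a fitted effect of over 60% in size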
# How it was run: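 Cells seeded 500/well in DMEM/10% FCS; compounds pinned in dose-response; 72 h incubation; CellTiter-Glo added, 5 min, luminescence. KB-8-5-11 run ±tariquidar to test reversal of P-gp resistance.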
# [3] = qHTS of pediatric cancer cell lines to identify multiple opportunities for drug repurposing: Confirmatory screen for SK-N-MC cells (AID 1347111);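 also: cells exposed to compound for 48 h before the readout; nearly all actives have a fitted effect of over 70% in size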; also: potency is read from the fitted curve at half-maximal effect
# How it was run: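 Seed 500-1,000 cells/well; rest 5 h at 37 degrees C. Pin-transfer compounds, 11-point titration. Incubate 48 h. Add CellTiter-Glo, 15 min RT, read luminescence.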
# [4] = qHTS of pediatric cancer cell lines to identify multiple opportunities for drug repurposing: Confirmatory screen for TC32 cells (AID 1347118);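 also: cells exposed to compound for 48 h before the read; nearly all actives have a fitted effect of over 65% in size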; also: potency is read from the fitted curve at half-maximal effect
# How it was run: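 Luminescent ATP read-out (CellTiter-Glo) of metabolically active TC32 cells after 48 h exposure. Concentration-response curves came from 11-point (MIPE, 0.78 nM–46 µM) or 8-point (NPC, 0.59 nM–46 µM) primary titrations; follow-up used 11 points.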
# [5] = Primary fluorescence-based thiol-reactive (MSTI) qHTS assay for identification of artifact compounds. (AID 1845221); also: potency is read from the fitted curve at half-maximal effect; nearly all actives have a fitted effect of over 65% in size
# How it was run: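 In PBS pH 7.4 with 2% DMSO, each compound met 4 uM MSTI for one hour at ambient temperature, shielded from light, before fluorescence detection.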
# [6] = Primary redox qHTS assay for identification of artifact compounds. (AID 1845223); also: potency is read from the fitted curve at half-maximal effect
# How it was run: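 Amplex Red (25 uM) and HRP (250 mU/mL) in HBSS, with compounds for 15 min, then 250 uM DTT for 30 min, room temperature, dark. Fluorescence 525/598 nm read; normalized to DMSO and 10 uM DA3003; Hill fit.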
# [7] = Quantitative High-Throughput drug screen in 47 multiple myeloma cell lines against the NCATS MIPE library collection: KMS26_JCRB cell viability assay (AID 1918975); conditions: KMS26 myeloma cells viability, CellTiter-Glo ATP, 48 h; viability (% of DMSO): at 45.8 µM (top of the series); also: potency is read from the fitted curve at half-maximal effect; nearly all actives have a fitted effect of over 45% in size
# How it was run: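 Relative luminescence from CellTiter-Glo served as the viability signal, referenced to DMSO-treated (100%) and cell-free medium (0%) controls. Treatment lasted 48 hours at 37C with 500 cells per well.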
# [8] = Drug repurposing screens with cells derived from glioblastoma tumor samples (AID 1345199); conditions: GBM patient neurospheres viability, ATP luminescence, 48 h; Potency: tumour line A unless noted; activity, negative = cell killing: at 46 µM (top of the series), tumour line A unless noted; also: nearly all actives have a fitted effect of over 40% in size; also: potency is read from the fitted curve at half-maximal effect; as to activity, negative = cell killing: % is scaled to controls: 0 for no effect and ±100 for the full control effect
# How it was run: (§1)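 Four patient lines of CD133+ GBM neurospheres were screened at several concentrations; hits were retested in those lines plus three slower-growing GBM lines, using 48-hour treatment and ATP-based viability.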
# [9] = biological target: Cytochrome P450 2D6 (Homo sapiens) (UniProt P10635); assay: Cytochrome P450 family 2 subfamily D member 6 (CYP2D6) small molecule antagonists: luciferase biochemical (cell-free) qHTS assay (AID 1645840; active = well fitted curve in the direction sought with a large enough effect in the repeat runs; inconclusive = weak or mixed curves; inactive = no such curve, though single readings can be large; an effect the other way counts as inactive or inconclusive; also: potency is read from the fitted curve at half-maximal effect; nearly all actives have a fitted effect of over 55% in size)
# How it was run: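 P450-Glo luminescent screen: recombinant CYP2D6 enzyme–proluciferin substrate mix preincubated with compound 10 min at room temperature, then NADPH regeneration added for 1 h at room temperature. Detection reagent added for 20 min; luciferin light read as relative luminescence units.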
# [10] = A High-Content qHTS Against Drug Library for the Identification of Small Molecules that Inhibit DYT1 Early Onset Primary Dystonia-Associated Cell Pathology (AID 1645839; calls by dose curve; also: potency is read from the fitted curve at half-maximal effect)
# How it was run: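 In this high-content image screen, delE TorsinA mislocalization in inducible Flp-In 293 cells is scored as %pathology, with cell count serving as the counterscreen. Compound exposure lasts 48 h under tetracycline induction in reduced-serum medium.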
# [11] = biological target: Glutathione peroxidase 1 (Homo sapiens) (UniProt P07203); assay: Primary qHTS Assay for Inhibitors of Recombinant Selenoprotein Glutathione Peroxidase 1 (GPX1) (AID 1845191); conditions: activity, negative = inhibition: at 48.8 µM (top of the series); also: potency is read from the fitted curve at half-maximal effect; nearly all actives have a fitted effect of over 65% in size
# How it was run: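 10 nM GPX1 + cpd, 30 min RT; start w/ 1 mM GSH, 0.5 mM cumene hydroperoxide, 0.5 mM NADPH, 100 nM GR, 0.01% BSA; buffer 50 mM Tris-HCl pH 7.5, 2 mM EDTA, 150 mM NaCl; Fl 340/450, 0 & 15 min.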
# [12] = tested on: astro; assay: Drug repurposing screens with cells derived from glioblastoma tumor samples (AID 1345199); conditions: viability, ATP luminescence, 48 h; series mostly up to 45.9 µM; also: nearly all actives have a fitted effect of over 40% in size; also: potency is read from the fitted curve at half-maximal effect; as to activity, negative = cell killing: % is scaled to controls: 0 for no effect and ±100 for the full control effect
# How it was run: as §1
# [13] = qHTS of pediatric cancer cell lines to identify multiple opportunities for drug repurposing: Confirmatory screen for BT-37 cells (AID 1347117);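 also: potency is read from the fitted curve at half-maximal effect; viability measured after 48 h of compound exposure; nearly all actives have a fitted effect of over 55% in size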
# How it was run: (§2)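 Cells (500-1,000/well) rested 5 h, then received compounds for 48 h; metabolically active cells were measured by CellTiter-Glo luminescence. Final concentrations spanned up to 46 µM (MIPE, 11-point) or 0.59 nM-46 µM (NPC, 8-point) in primary screens, 11-point in follow-ups.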
# [14] = qHTS of pediatric cancer cell lines to identify multiple opportunities for drug repurposing: Confirmatory screen for Rh41 cells (AID 1347123); also: potency is read from the fitted curve at half-maximal effect; nearly all actives have a fitted effect of over 60% in size
# How it was run: as §2
# [15] = biological target: Cytochrome P450 2C9 (Homo sapiens) (UniProt P11712); assay: Cytochrome P450 family 2 subfamily C member 9 (CYP2C9) small molecule antagonists: luciferase biochemical (cell-free) qHTS assay (AID 1645842; active = well fitted curve in the direction sought with a large enough effect in the repeat runs; inconclusive = weak or mixed curves; inactive = no such curve, though single readings can be large; an effect the other way counts as inactive or inconclusive; also: potency is read from the fitted curve at half-maximal effect; nearly all actives have a fitted effect of over 55% in size)
# How it was run: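 Luminescence, after 20 min with luciferin detection reagent, reflected CYP2C9 turnover during a 1 h NADPH-driven reaction at 37C. Enzyme-substrate mix contained 0.4% bovine serum albumin and was preincubated with compound 10 min at room temperature.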
# [16] = biological target: Ubiquitin carboxyl-terminal hydrolase 1 (Homo sapiens) (UniProt O94782); assay: Inhibitors of USP1/UAF1: Pilot qHTS (AID 504865); also: potency is read from the fitted curve at half-maximal effect; nearly all actives have a fitted effect of over 35% in size
# How it was run: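 Enzyme-free wells gave the negative control, while test wells held 1nM USP1/UAF1 preincubated with compound for 15 min at room temperature. Ub-Rho at 150nM final started the reaction, and fluorescence at 480/540 nm was recorded kinetically.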
# [17] = tested on: Zika virus NS2B-NS3 protease (unlinked complex); assay: Primary screen GU Rhodamine qHTS for Zika virus inhibitors: Unlinked NS2B-NS3 protease assay (AID 1347159); also: % is scaled to controls: 0 for no effect and ±100 for the full control effect; nearly all actives have a fitted effect of over 60% in size
# How it was run: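 Percent inhibition derives from the 15-min fluorescence change (ex 480, em 540 nm), normalized to no-enzyme and no-inhibitor wells. Reactions contained 25 nM NS2B-NS3 complex and 1.5 microM substrate in 10 mM Tris-HCl pH 8.0.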
structure (smiles),measurement,setting,value
Cc1c(CCOc2ccc(C(=O)O)cc2)c2cc(Cl)ccc2n1C(c1ccccc1)c1ccccc1,Potency,[1],inactive
COc1cccc2cc(-c3nc(C4CCC(C(=O)O)CC4)n4ncnc(N)c34)[nH]c12 (stereo not given),Potency,[2],active: 1.3 µM
same,Potency,[3],inactive
same,Potency,[4],inactive
same,Potency,[5],active: 26.7 µM
same,Potency,[6],"inconclusive: 29.9 µM [activator, single point]"
same,Potency,[7],active: 0.662 µM
Oc1cn2c(n1)Nc1ccc(Cl)c(Cl)c1C2,Potency,[8],"inconclusive: 31.6 µM [inhibitor, partial curve]"
S=C(NCc1ccc2c(c1)OCO2)N1CCN(c2ncnc3c2oc2ccccc23)CC1,Potency,[9],active: 4.77 µM
same,Potency,[7],"inconclusive: 54 µM [cytotoxic, partial curve, poor fit]"
COc1cc2ncn(-c3cc(OCc4ccccc4C(F)(F)F)c(C(N)=O)s3)c2cc1OC,Potency,[7],active: 18.7 µM
CS(=O)(=O)c1cccc(CNc2nc(Nc3ccc4c(c3)CCC(=O)N4)ncc2C(F)(F)F)c1,Potency,[6],"inconclusive: 21.2 µM [activator, partial curve, poor fit]"
NC1(c2ccc(-c3nc4ccn5c(=O)[nH]nc5c4cc3-c3ccccc3)cc2)CCC1,Potency,[10],"inconclusive: 15.8 µM [inhibitor, partial curve, poor fit]"
same,Potency,[9],"inconclusive: 38.9 µM [inhibitor, single point]"
same,Potency,[11],"inconclusive: 25.5 µM [inhibitor, partial curve]"
same,Potency,[6],inactive
same,Potency,[12],"inconclusive: 11.2 µM [inhibitor, partial curve]"
O=C(C=Cc1cccc(S(=O)(=O)Nc2ccccc2)c1)NO,Potency,[3],active: 1.51 µM
C[C@@]12O[C@@H](C[C@]1(O)CO)n1c3ccccc3c3c4c(c5c6ccccc6n2c5c31)CNC4=O,Potency,[2],active: 0.206 µM
CC(NCc1ccc2c(c1)nc(NC(=O)c1ccc(-c3cn[nH]c3)s1)n2CC(C)(C)O)C(C)(C)C (stereo not given),Potency,[3],"inconclusive: 0.465 µM [cytotoxic, partial curve, poor fit]"
same,Potency,[13],"inconclusive: 0.585 µM [cytotoxic, full curve, poor fit]"
same,Potency,[4],"inconclusive: 0.827 µM [cytotoxic, full curve, poor fit]"
same,Potency,[14],active: 0.737 µM
O=C1NC2CCCCN2C12CCN(CCCN1c3ccccc3CCc3ccc(Cl)cc31)CC2 (stereo not given),Potency,[10],"inconclusive: 7.94 µM [inhibitor, partial curve, poor fit]"
same,Potency,[9],active: 2.45 µM
same,Potency,[15],"inconclusive: 12.3 µM [inhibitor, partial curve]"
same,Potency,[6],"inconclusive: 2.99 µM [activator, full curve, poor fit]"
same,Potency,[12],active: 20 µM
CC#C[C@]1(O)CC[C@H]2[C@@H]3CCC4=CC(=O)CCC4=C3[C@H](c3ccc(N(C)C)cc3)C[C@@]21C,Potency,[16],"inconclusive: 44.7 µM [inhibitor, partial curve]"
O=C(O)c1cc(-c2ccccc2)nc2ccccc12,Potency,[17],inactive
same,Potency,[9],"inconclusive: 30.9 µM [inhibitor, single point]"
same,Potency,[8],"inconclusive: 35.5 µM [inhibitor, partial curve, poor fit]"
same,Potency,[12],"inconclusive: 20 µM [inhibitor, partial curve] and inconclusive: 31.6 µM [inhibitor, partial curve]"
CN(C)c1cccc(-c2c3c(=O)n(-c4ccccc4Cl)[nH]c3cc(=O)n2C)c1,Potency,[5],active: 1.89 µM
CC(C)C[C@H](NC(=O)CNC(=O)c1cc(Cl)ccc1Cl)B(O)O,Potency,[3],inactive
same,Potency,[13],"inconclusive: 0.737 µM [cytotoxic, full curve, poor fit]"
same,Potency,[4],inactive
same,Potency,[14],active: 0.165 µM
same,Potency,[11],"inconclusive: 29 µM [inhibitor, single point]"
CC(C)(C)c1cnc(CSc2cnc(NC(=O)C3CCNCC3)s2)o1,Potency,[11],"inconclusive: 29 µM [inhibitor, single point]"
COC(=O)C1=C(C)NC(C)=C(C(=O)OC(C)(C)CN(C)CCC(c2ccccc2)c2ccccc2)C1c1cccc([N+](=O)[O-])c1 (stereo not given),Potency,[16],"inconclusive: 10 µM [inhibitor, full curve, poor fit] and inconclusive: 44.7 µM [inhibitor, full curve, poor fit]"
same,Potency,[10],active: 10 µM
same,Potency,[8],active: 5.8 µM [tumour line C]
same,"activity, negative = cell killing",[8],"inconclusive: -33% [inhibitor] [at 45.9 µM, tumour line B]"
same,Potency,[12],"inconclusive: 2.24 µM [inhibitor, full curve]"

# Rewritten with tabs: part of the list above.
structure (smiles)	measurement	setting	value
COC(=O)C1=C(C)NC(C)=C(C(=O)OC(C)(C)CN(C)CCC(c2ccccc2)c2ccccc2)C1c1cccc([N+](=O)[O-])c1 (stereo not given)	Potency	[8]	active: 5.8 µM [tumour line C]
same	activity, negative = cell killing	[8]	inconclusive: -33% [inhibitor] [at 45.9 µM, tumour line B]
